From paper PMC7005485 come the findings set out here.

Chains of the proteins cited; added tags and fusions are not shown.
UniProt Q13526: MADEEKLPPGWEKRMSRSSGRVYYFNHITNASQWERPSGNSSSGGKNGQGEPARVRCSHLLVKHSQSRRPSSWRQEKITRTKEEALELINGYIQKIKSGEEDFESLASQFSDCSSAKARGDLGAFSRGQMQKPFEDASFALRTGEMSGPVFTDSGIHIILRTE
UniProt P03146: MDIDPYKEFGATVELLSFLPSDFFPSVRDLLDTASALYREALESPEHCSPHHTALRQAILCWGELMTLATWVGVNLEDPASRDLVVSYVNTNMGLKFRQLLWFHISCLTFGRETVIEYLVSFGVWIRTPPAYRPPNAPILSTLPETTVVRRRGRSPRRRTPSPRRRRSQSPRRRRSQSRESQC

Test [1] has as its target GST-Pin1 (peptidyl-prolyl cis-trans isomerase NIMA-interacting 1) (UniProt Q13526). Nature of the test: pull-down; GST, GST-Pin1 or GST-Pin1W34A on glutathione-agarose beads incubated with cell lysate at 4°C for 3 h in GST pull-down buffer (50 mM HEPES pH 7.4, 200 mM NaCl, 10% glycerol, 1% Triton X-100); cells treated with 100 nM bafilomycin A1 and 4 mM NH4Cl for 15 h before harvest; in some panels cells treated with roscovitine (50 uM, 15 h) or expressing HT-PDP2; immunoblot; only the target purified. Background: Immunoblotting shows a protein as a band on a membrane.

Test [2] concerns the target HBc of stably HBV-producing HepG2.2.15.7 cells (hepatitis B virus) (UniProt P03146). Nature of the test: co-IP; HepG2.2.15.7 cell lysates immunoprecipitated with anti-HBc or non-immunized IgG; immunoblot with anti-Pin1 or anti-HBc.

These are yes or no findings as the source states them, for the method shown. Binding seen in cells or lysates may run through a third protein. Some binding calls cover weakened binding; strength is not graded here.

Consider “HBc of stably HBV-producing HepG2.2.15.7 cells (from UniProt P03146 1-183)”, for which the binding result in test [1] was “binds”.
With “endogenous Pin1 (from UniProt Q13526 1-163) (enzyme)”, the binding entry in test [2] is “binds”.
